Values from PubChem BioAssay AID1224828 (NIAID, 2016)
Shown is a random part of about 17,000 reagents tested. In the full data, 762 (4.5%) are marked active. 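Active calls include both raised and lowered p65 entry, mostly lowered; wells with fewer than 50 cells lack a z-score.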 Raw values vary from plate to plate and are shown uncorrected. No sequences are given here.

Aim: 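Knock-downs that increase or decrease LPS-induced p65 nuclear translocation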 (primary screen)
Cell system: mouse RAW264.7 G9 macrophage reporter cells (GFP-p65, Tnf promoter-mCherry)
Knock-down reagent: siRNA pool against mouse genes, 100 nM
Timing: 2 days siRNA transfection, then 40 min LPS before fixation
Challenge: LPS (Salmonella minnesota R595) at 10 ng/ml
Measurement: 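Imaged p65 nuclear translocation ratio, normalised to the plate median, converted to robust z-scores and averaged across two replicates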
Scale: p65 translocation robust z-score: higher = more nuclear NF-kappaB p65 after LPS than the plate median; nuclear/cytoplasmic p65 ratio: higher = more nuclear NF-kappaB p65
Call rule: 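Called active when z exceeds 3.3 or falls under -1.56 (median of Tlr4 controls), giving activity score of at least 50; no calls for control wells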
Calls: active = hit (p65 shift raised or lowered); inactive = no clear change

Vps36 (vacuolar protein sorting 36) [SID315473984]
- p65 translocation robust z-score: 2.31
- nuclear/cytoplasmic p65 ratio, rep 1: 1.57
- nuclear/cytoplasmic p65 ratio, rep 2: 1.67
- low cell count flag: enough cells to score
- call: inactive

Pex26 (peroxisomal biogenesis factor 26) [SID315474826]
- nuclear/cytoplasmic p65 ratio, rep 1: 1.26
- nuclear/cytoplasmic p65 ratio, rep 2: 1.07
- low cell count flag: fewer than 50 cells per well; well left out of scoring
- call: inactive

Or52h2 (olfactory receptor family 52 subfamily H member 2) [SID315480662]
- p65 translocation robust z-score: -0.07
- nuclear/cytoplasmic p65 ratio, rep 1: 1.41
- nuclear/cytoplasmic p65 ratio, rep 2: 1.28
- low cell count flag: enough cells to score
- call: inactive

Spata24 (spermatogenesis associated 24) [SID315474209]
- nuclear/cytoplasmic p65 ratio, rep 1: 1.47
- nuclear/cytoplasmic p65 ratio, rep 2: 1.6
- low cell count flag: fewer than 50 cells per well; well left out of scoring
- call: inactive

Cog4 (component of oligomeric golgi complex 4) [SID315476327]
- p65 translocation robust z-score: -0.35
- nuclear/cytoplasmic p65 ratio, rep 1: 1.38
- nuclear/cytoplasmic p65 ratio, rep 2: 1.37
- low cell count flag: enough cells to score
- call: inactive

Mtif2 (mitochondrial translational initiation factor 2) [SID315475376]
- p65 translocation robust z-score: -0.01
- nuclear/cytoplasmic p65 ratio, rep 1: 1.78
- nuclear/cytoplasmic p65 ratio, rep 2: 1.59
- low cell count flag: enough cells to score
- call: inactive

Dhx29 (DExH-box helicase 29) [SID315478206]
- p65 translocation robust z-score: 0.31
- nuclear/cytoplasmic p65 ratio, rep 1: 1.58
- nuclear/cytoplasmic p65 ratio, rep 2: 1.63
- low cell count flag: enough cells to score
- call: inactive

Emp3 (epithelial membrane protein 3) [SID315466495]
- p65 translocation robust z-score: 0.62
- nuclear/cytoplasmic p65 ratio, rep 1: 1.59
- nuclear/cytoplasmic p65 ratio, rep 2: 1.56
- low cell count flag: enough cells to score
- call: inactive

Fras1 (Fraser extracellular matrix complex subunit 1) [SID315478894]
- p65 translocation robust z-score: -1.29
- nuclear/cytoplasmic p65 ratio, rep 1: 1.48
- nuclear/cytoplasmic p65 ratio, rep 2: 1.22
- low cell count flag: enough cells to score
- call: inactive

Rhobtb1 (Rho-related BTB domain containing 1) [SID315473774]
- p65 translocation robust z-score: -0.7
- nuclear/cytoplasmic p65 ratio, rep 1: 1.45
- nuclear/cytoplasmic p65 ratio, rep 2: 1.39
- low cell count flag: enough cells to score
- call: inactive

Cd200 (CD200 molecule) [SID315467969]
- p65 translocation robust z-score: 0.64
- nuclear/cytoplasmic p65 ratio, rep 1: 1.44
- nuclear/cytoplasmic p65 ratio, rep 2: 1.5
- low cell count flag: enough cells to score
- call: inactive

Arg2 (arginase type II) [SID315465499]
- p65 translocation robust z-score: -1.34
- nuclear/cytoplasmic p65 ratio, rep 1: 1.35
- nuclear/cytoplasmic p65 ratio, rep 2: 1.38
- low cell count flag: enough cells to score
- call: inactive

Mtch1 [SID315471556]
- p65 translocation robust z-score: 0.48
- nuclear/cytoplasmic p65 ratio, rep 1: 1.49
- nuclear/cytoplasmic p65 ratio, rep 2: 1.41
- low cell count flag: enough cells to score
- call: inactive

Utp23 (UTP23 small subunit processome component) [SID315475587]
- p65 translocation robust z-score: -3.35
- nuclear/cytoplasmic p65 ratio, rep 1: 1.13
- nuclear/cytoplasmic p65 ratio, rep 2: 1.02
- low cell count flag: enough cells to score
- call: active
